Assay results: ChEMBL document CHEMBL5360608, “Development of Riluzole Analogs with Improved Use-Dependent Inhibition of Skeletal Muscle Sodium Channels” (ACS Med Chem Lett, 2023)

Amino acid sequences for entries named in this document (tags omitted).
UniProt Q15858, whole entry: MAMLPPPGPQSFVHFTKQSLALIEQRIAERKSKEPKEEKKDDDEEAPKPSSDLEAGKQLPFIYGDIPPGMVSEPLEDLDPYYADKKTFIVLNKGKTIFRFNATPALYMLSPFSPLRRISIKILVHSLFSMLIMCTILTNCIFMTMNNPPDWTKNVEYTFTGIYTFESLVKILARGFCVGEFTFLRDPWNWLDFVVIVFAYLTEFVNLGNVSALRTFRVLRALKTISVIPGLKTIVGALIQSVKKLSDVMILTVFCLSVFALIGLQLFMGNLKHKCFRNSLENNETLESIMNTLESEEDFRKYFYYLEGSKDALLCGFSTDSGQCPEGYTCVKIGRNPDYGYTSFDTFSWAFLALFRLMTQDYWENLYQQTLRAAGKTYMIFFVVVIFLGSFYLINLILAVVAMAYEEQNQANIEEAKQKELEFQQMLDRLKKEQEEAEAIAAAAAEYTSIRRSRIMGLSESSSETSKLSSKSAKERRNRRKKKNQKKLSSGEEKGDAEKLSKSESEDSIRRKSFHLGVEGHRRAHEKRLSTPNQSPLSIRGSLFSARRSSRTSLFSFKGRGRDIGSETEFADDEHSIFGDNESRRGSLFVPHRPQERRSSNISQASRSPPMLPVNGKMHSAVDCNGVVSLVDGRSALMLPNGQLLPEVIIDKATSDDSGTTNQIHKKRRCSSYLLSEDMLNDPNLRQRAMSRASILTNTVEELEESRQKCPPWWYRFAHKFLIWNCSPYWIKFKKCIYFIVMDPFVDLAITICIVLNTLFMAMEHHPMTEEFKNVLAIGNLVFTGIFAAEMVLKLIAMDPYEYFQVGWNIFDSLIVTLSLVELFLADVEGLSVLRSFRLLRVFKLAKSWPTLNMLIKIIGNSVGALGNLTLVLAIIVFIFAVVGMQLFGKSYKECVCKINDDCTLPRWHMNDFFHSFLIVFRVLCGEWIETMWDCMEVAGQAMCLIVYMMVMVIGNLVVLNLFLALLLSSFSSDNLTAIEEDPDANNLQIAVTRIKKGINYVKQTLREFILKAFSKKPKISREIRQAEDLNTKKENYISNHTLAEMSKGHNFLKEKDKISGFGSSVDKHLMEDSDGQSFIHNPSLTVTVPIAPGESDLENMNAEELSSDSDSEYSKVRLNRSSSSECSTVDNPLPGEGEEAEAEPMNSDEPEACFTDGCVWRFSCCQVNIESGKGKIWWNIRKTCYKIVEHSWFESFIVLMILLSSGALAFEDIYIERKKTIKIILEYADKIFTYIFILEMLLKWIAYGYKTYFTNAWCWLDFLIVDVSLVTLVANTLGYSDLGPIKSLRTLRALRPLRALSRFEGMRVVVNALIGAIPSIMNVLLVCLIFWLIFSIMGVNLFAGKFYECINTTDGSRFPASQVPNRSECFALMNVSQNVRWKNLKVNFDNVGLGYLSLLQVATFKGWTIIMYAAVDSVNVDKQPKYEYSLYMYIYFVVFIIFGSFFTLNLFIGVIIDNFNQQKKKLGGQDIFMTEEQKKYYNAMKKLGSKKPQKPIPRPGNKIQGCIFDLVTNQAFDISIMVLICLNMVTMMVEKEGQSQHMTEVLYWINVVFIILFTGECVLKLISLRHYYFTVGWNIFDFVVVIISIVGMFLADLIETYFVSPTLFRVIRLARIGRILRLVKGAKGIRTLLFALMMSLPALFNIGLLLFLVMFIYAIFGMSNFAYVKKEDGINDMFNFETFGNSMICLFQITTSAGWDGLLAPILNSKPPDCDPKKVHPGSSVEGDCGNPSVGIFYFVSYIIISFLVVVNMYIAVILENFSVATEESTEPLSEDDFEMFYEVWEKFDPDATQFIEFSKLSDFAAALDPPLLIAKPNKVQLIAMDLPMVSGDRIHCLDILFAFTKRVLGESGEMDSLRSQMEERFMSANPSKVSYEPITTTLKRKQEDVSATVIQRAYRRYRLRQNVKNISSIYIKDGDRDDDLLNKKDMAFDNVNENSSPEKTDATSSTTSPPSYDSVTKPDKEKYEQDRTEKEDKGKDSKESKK

Experiments:
[1] = target: T1, Sodium channel protein type 9 subunit alpha (Homo sapiens, UniProt Q15858); assay: Inhibition of human Nav 1.7 expressed in HEK293T cells assessed as phasic block at 10 Hz by whole cell patch clamp assay; format: cell-based
[2] = target: T1, Sodium channel protein type 9 subunit alpha; assay: Inhibition of human Nav 1.7 expressed in HEK293T cells assessed as tonic block at 0.1 Hz by whole cell patch clamp assay; format: cell-based

- IC50 [1]: 41 µM
- IC50 [2]: 56 µM
SMILES: Nc1nc2ccc(OC(F)(F)F)cc2s1 [RILUZOLE]
